Reference: PubChem BioAssay AID652272 (Drosophila RNAi Screening Center, 2013)

Assay: 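Genes whose knock-down decreases or increases Hedgehog reporter output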 (primary screen)
System: Drosophila clone 8 (Cl8) cells
Reagents: long dsRNA against Drosophila genes
Detection: 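Plate reader light from a firefly reporter under a ptc promoter fragment that responds to Hedgehog, with Renilla light as transfection reference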
Reading the numbers: firefly Hh reporter signal: higher = more ptc reporter light; Renilla reference signal: higher = more Renilla control light
Active means: 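Hit when the z-score averaged over two replicates is under -2 or over +3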
Calls: active = hit: reporter lowered or raised; inactive = not a hit
In all, the deposit lists about 21,000 reagents; below is an unselected part of those that have a named target and a result. Over the whole deposit, 503 (2.4%) got an active call. 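Raw plate light values, not normalised; calls rest on replicate z-scores that were not deposited; hits include reporter decreases as well as increases.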 A plus sign joins genes that one reagent is predicted to hit. Not stated in the record: the amount of reagent, the time to read-out.

| gene | DRSC id | firefly Hh reporter signal, replicate 1 | firefly Hh reporter signal, replicate 2 | firefly Hh reporter signal, replicate 3 | Renilla reference signal, replicate 1 | Renilla reference signal, replicate 2 | outcome |
| --- | --- | --- | --- | --- | --- | --- | --- |
| PTPMT1 (GeneID 42807) | DRSC14235 | 4.71e5 | 1.33e5 | – | 25105 | 3977 | inactive |
| CG2972 (GeneID 31943) | DRSC18250 | 71243 | 63251 | – | 1505 | 1655 | inactive |
| CRAT (GeneID 40787) | DRSC12523 | 70609 | 89658 | – | 2842 | 2819 | inactive |
| CR12628 + Mgstl | DRSC03702 | 57696 | 5.28e5 | 60705 | 2375 | 32381 | inactive |
| CR12628 + Mgstl | DRSC20568 | 1.49e5 | 3.03e5 | – | 5900 | 13570 | inactive |
| CG7110 (GeneID 34757) | DRSC03011 | 46960 | 80614 | – | 1787 | 2738 | inactive |
| CG7110 (GeneID 34757) | DRSC03012 | 98240 | 44105 | – | 2916 | 4682 | inactive |
| CG3402 (GeneID 38077) | DRSC08567 | 1.38e5 | 83913 | – | 5995 | 2825 | inactive |
| CG30114 (GeneID 246465) | DRSC05707 | 86640 | 1.38e5 | – | 3040 | 6704 | inactive |
| Dci (GeneID 38100) | DRSC08360 | 5.65e5 | 1.01e5 | – | 4997 | 4997 | inactive |
| CG15605 (GeneID 36933) | DRSC06558 | 73997 | 38070 | – | 2048 | 3136 | inactive |
| CG17385 (GeneID 36603) | DRSC06664 | 89260 | 52793 | – | 2252 | 3495 | inactive |
| Bap60 (GeneID 32268) | DRSC19337 | 71496 | 44746 | – | 2347 | 1628 | inactive |
| CG9861 (GeneID 37692) | DRSC04576 | 62022 | 56044 | – | 2985 | 2395 | inactive |
| CG14963 (GeneID 38383) | DRSC08422 | 82968 | 27682 | – | 2372 | 285 | inactive |
| CG15145 (GeneID 35064) | DRSC02446 | 1.22e5 | 48881 | – | 3373 | 4131 | inactive |
| CG7236 (GeneID 33798) | DRSC03037 | 74203 | 47815 | – | 2203 | 4538 | inactive |
| ssp6 (GeneID 38694) | DRSC08791 | 1.46e5 | 2.46e5 | – | 4176 | 11092 | inactive |
| ssp6 (GeneID 38694) | DRSC10677 | 22225 | 35260 | – | 3880 | 2936 | inactive |
| MED10 (GeneID 39777) | DRSC10474 | 1.29e5 | – | – | 5604 | 3329 | inactive |
| Apc2 (GeneID 42871) | DRSC14115 | 1.25e5 | 60471 | – | 5121 | 2869 | inactive |
| CG31205 (GeneID 318626) | DRSC13438 | 52897 | 1.52e5 | – | 11249 | 3834 | inactive |
| CG5098 (GeneID 37063) | DRSC06915 | 2.04e5 | 1.20e5 | – | 8805 | 5946 | inactive |
| Ppa (GeneID 37602) | DRSC04598 | 1.47e5 | 87121 | – | 3803 | 6324 | inactive |
| CG7420 (GeneID 33332) | DRSC00704 | 71808 | 75921 | – | 2696 | 3197 | inactive |
| shakB (GeneID 33062) | DRSC20420 | 7.52e5 | 3.09e5 | – | 42009 | 5382 | inactive |
| shakB (GeneID 33062) | DRSC20423 | 7.20e5 | 2.86e5 | – | 43369 | 5009 | inactive |
| shakB (GeneID 33062) | DRSC20492 | 1.15e5 | 3.58e5 | – | 2296 | 14624 | inactive |
| shakB (GeneID 33062) | DRSC20585 | 68432 | 1.78e5 | – | 2280 | 7737 | inactive |
| GM130 (GeneID 37524) | DRSC04617 | 64842 | 90743 | – | 2629 | 3625 | inactive |
| Vps4 (GeneID 32777) | DRSC19338 | 80160 | 65030 | – | 2420 | 2105 | inactive |
| CG12355 (GeneID 2768954) | DRSC09381 | 4.90e5 | 1.03e5 | – | 4752 | 4752 | inactive |
| CG12355 (GeneID 2768954) | DRSC09883 | 81148 | – | – | 4215 | 2309 | inactive |
| CG15144 (GeneID 35063) | DRSC02445 | 89409 | 64626 | – | 2530 | 6149 | inactive |
| RpL21 (GeneID 35453) | DRSC03704 | 28896 | 22137 | – | 1125 | 3943 | active |
| CG15754 (GeneID 32307) | DRSC19719 | 56828 | 2.17e5 | – | 1369 | 7861 | inactive |
| Obp56a (GeneID 37264) | DRSC06085 | 91349 | 58236 | – | 2224 | 4068 | inactive |
| Ccp84Ag (GeneID 40819) | DRSC12592 | 1.17e5 | 1.44e5 | – | 3632 | 4081 | inactive |
| CG14676 (GeneID 40729) | DRSC12262 | 1.01e5 | 1.40e5 | – | 4075 | 4147 | inactive |

Individual results from above:
Value of CR12628 + Mgstl [DRSC03702] in “firefly Hh reporter signal, replicate 2”: 5.28e5
Result for CG5098 (GeneID 37063) [DRSC06915] under “outcome”: inactive
Ccp84Ag (GeneID 40819) [DRSC12592], firefly Hh reporter signal, replicate 2 → 1.44e5
Value for CG15605 (GeneID 36933) [DRSC06558] under “Renilla reference signal, replicate 1”: 2048
Under “firefly Hh reporter signal, replicate 2”, shakB (GeneID 33062) [DRSC20492] is entered as 3.58e5
